The structures appear in SMILES notation. Structures can show the parent of a compound that is named as a salt. This is one part of the list. This data set is noisy: repeats of one test often differ as much as different tests do.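 PR50, a 50-repeat proline–arginine dipeptide protein from C9ORF72 (ALS/FTD), was expressed by transfection in U-2 OS human cells stably carrying a GFP sensor with import and classical export signals. Per-well nuclear-minus-cytoplasm GFP, normalized between in-plate DMSO (low) and PR-only (high), was scored versus other test wells; compounds well below zero were hits reversing PR.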

This assay concerns U-2 OS NCT-C biosensor cells expressing PR50. The assay is described as follows: Z-score of normalised NCT-C biosensor translocation index in PR50-expressing cells; higher = more nuclear biosensor (more disrupted nuclear export). The following applies: 3 µM; 24 h.
Turning to `COc1cc(C2Oc3cc([C@H]4Oc5cc(O)cc(O)c5C(=O)[C@@H]4O)ccc3OC2CO)ccc1O` (stereo not given in full) [Silymarin], the Z-score was inactive: 0.165.
Take `COc1cc(C2Oc3cc([C@H]4Oc5cc(O)cc(O)c5C(=O)[C@@H]4O)ccc3OC2CO)ccc1O` (stereo not given in full) [Silybine]: the Z-score is inactive: 0.203.
`O=c1cc(-c2ccccc2)oc2cc(O)c(O)c(O)c12` [Baicalein]: the Z-score is inactive: -0.494.
As for `N[C@@H](CCCC(=O)O)C(=O)O` [L-2-aminoadipic acid], the Z-score is inactive: 0.426.
As to `O=c1[nH]c(=O)c2nc3ccccc3nc2[nH]1` [Alloxazine], the Z-score is inactive: 0.171.
As for `CC(=O)O[C@H]1C[C@@]2(C)[C@@H](C[C@@H](O)[C@H]3[C@@]4(C)CC[C@@H](O)[C@@H](C)[C@@H]4CC[C@@]32C)/C1=C(\CCC=C(C)C)C(=O)O` [Fusidic acid sodium salt], the Z-score was inactive: -0.557.
For the molecule `CC(=O)N[C@@H](CS)C(=O)O` [L-Cysteine, N- Acetyl-], the Z-score is inactive: 0.798.
For the molecule `CC(=O)N[C@@H](CS)C(=O)O` [Acetylcysteine], the Z-score was inactive: 0.347.
In the case of `CC[C@H](C)C(=O)O[C@H]1C[C@@H](C)C=C2C=C[C@H](C)[C@H](CC[C@@H]3C[C@@H](O)CC(=O)O3)[C@H]21` [Lovastatin] it was inactive: 0.374; in that of `CCN(CC)CCOC(=O)c1ccc(N)cc1` [Procaine hydrochloride], inactive: -0.734; in that of `N[C@H](C(=O)O)[C@@H]1CC(Cl)=NO1` [Acivicin], inactive: -0.59.
Regarding `C[C@H](Cn1cnc2c(N)ncnc21)OCP(=O)(O)O` [Tenofovir], the Z-score is inactive: -0.36.
For the molecule `CCCCNc1cc(C(=O)O)cc(S(N)(=O)=O)c1Oc1ccccc1` [Bumetanide], the Z-score was inactive: 0.785.
Take `OC(CCN1CCCCC1)(c1ccccc1)C1CCCCC1` (racemic) [DL-  Trihexyphenidyl hydrochloride]: the Z-score is inactive: 0.599.
`CC(C)(C)c1ccc(C(=O)CCCN2CCC(OC(c3ccccc3)c3ccccc3)CC2)cc1` [Ebastine]: the Z-score is inactive: 0.55.
`CC[C@H](NC(=O)c1c(O)c(-c2ccccc2)nc2ccccc12)c1ccccc1` [Talnetant]: the Z-score was inactive: 2.67.
For `NC(=O)OCC(COC(N)=O)c1ccccc1` [Felbamate], the Z-score was inactive: 0.551.
For `CCCCS(=N)(=O)CCC(N)C(=O)O` (racemic) [DL-Buthionine- [S,R]-sulfoximine], the Z-score is inactive: 3.28.
Regarding `COc1ccc(C[C@H](N)C(=O)N[C@H]2[C@@H](O)[C@H](n3cnc4c(N(C)C)ncnc43)O[C@@H]2CO)cc1` [Puromycin], the Z-score was inactive: 1.31.
In the case of `COCc1nc2c([nH]1)c(=O)n(C)c(=O)n2CC(C)C` [8-Methoxymethyl-3 isobutyl-1-methylxanthine] it was inactive: -1.09; in that of `CC12CCc3occc3C1CCC13CC(=O)C(CCC12)C3` (stereo not given) [16-Oxocafestol], inactive: -0.491; in that of `CCCCCCCCCC[Si](C)(C)CCC(=O)NC(Cc1ccc(C)cc1)c1ccccc1` (stereo not given) [Sandoz 58-035], inactive: 0.586.
Regarding `Cc1c2c(c(O)c3c(O)cccc13)C(=O)O[C@@H]2[C@@H]1[C@H](O)C(=O)C(C(N)=O)=C(O)[C@H]1N(C)C` [α-Apo-Oxytetracycline], the Z-score was inactive: -0.729.
Take `COC(=O)N[C@H](C(=O)N[C@@H](Cc1ccccc1)[C@@H](O)CN(Cc1ccc(-c2ccccn2)cc1)NC(=O)[C@@H](NC(=O)OC)C(C)(C)C)C(C)(C)C` [Atazanavir]: the Z-score is inactive: -0.404.
As to `COc1c(C)c2c(c(O)c1C/C=C(\C)CCC(=O)O)C(=O)OC2` [Mycophenolic Acid], the Z-score was inactive: 3.31.
The result for `COc1c(C)c2c(c(O)c1C/C=C(\C)CCC(=O)O)C(=O)OC2` [Mycophenolic acid] reads inactive: -0.412.
The result for `CCCCCNC(=N)N/N=C/c1c[nH]c2ccc(OC)cc12` [Tegaserod maleate] reads inactive: -0.703; that for `O=C(NCCN1CCOCC1)c1ccc(Cl)cc1` [Moclobemide], inactive: -0.282.
Consider `Cc1cc(Cl)ccc1OCCCC(=O)NO` [Droxinostat], for which the Z-score is inactive: -1.59.
For the molecule `Cc1ccc(-n2sc(=O)n(Cc3ccc(F)cc3)c2=O)cc1`, the Z-score is inactive: 0.706.
In the case of `NCCNCCNCCN` [Trientine Dihydrochloride] it was inactive: -0.215; in that of `CCCC(CCC)C(=O)O[C@H]1C[C@H]2CC[C@@H](C1)[N+]2(C)C` [Anisotropine methyl bromide], inactive: 1.62.
Turning to `Nc1c(CC(=O)O)cccc1C(=O)c1ccc(Br)cc1` [Bromfenac], the Z-score was inactive: -0.421.
In the case of `OCCN1CCN(CCCN2c3ccccc3C=Cc3ccccc32)CC1` [Opipramol dihydrochloride] it was inactive: 0.454; in that of `O=C(O)C=C1CCCc2ccccc2C1O` (stereo not given), inactive: -1.17.
On to `CN1C(=O)OC(C)(C)C1=O` [Trimethadione], for which the Z-score is inactive: 0.621.
As for `CC(=O)CCCCn1c(=O)c2c(ncn2C)n(C)c1=O` [Pentoxifylline], the Z-score is inactive: -0.519.
As for `COc1cc2c(cc1OCCCN1CCCC1)N=C(N)C21CCC1`, the Z-score is inactive: -1.26.
Regarding `CN(C/C=C/c1ccccc1)Cc1cccc2ccccc12` [Naftifine·HCl], the Z-score was inactive: -0.663.
Take `O=c1c(-c2ccc(O)cc2)coc2cc(O)ccc12` [Daidzein]: the Z-score is inactive: -0.688.
`CC1(C)CC[C@]2(C(=O)O)CC[C@]3(C)C(=CC[C@@H]4[C@@]5(C)CC[C@H](O)C(C)(C)[C@@H]5CC[C@]43C)[C@@H]2C1` [Oleanolic acid]: the Z-score was inactive: 0.0921.
Regarding `C[C@H]1O[C@@H](n2cc(F)c(=O)[nH]c2=O)[C@H](O)[C@@H]1O` [5-fluoro-5'- deoxyuridine], the Z-score is inactive: -0.167.
Regarding `C[n+]1cccc(C(N)=O)c1` [1-  Methylnicotinamide chloride], the Z-score is inactive: -0.84.
The result for `Clc1ccc(C(c2ccc(Cl)cc2)[n+]2ccn(CC(OCc3ccc(Cl)cc3Cl)c3ccc(Cl)cc3Cl)c2)cc1` (stereo not given) [Calmidazolium chloride] reads inactive: -0.196; that for `N[C@@H](Cc1cc(CP(=O)(O)O)cc(-c2ccccc2Cl)c1)C(=O)O` [SDZ 220-581  hydrochloride], inactive: 0.272.
